Measurements reported in the supplement of paper PMC4749390.
Counter-ions that a name gives are not always drawn. Some of the results follow. Repeats in this data set agree poorly, so a single value says little.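 Wild-type human LRH-1, a heavily sumoylated nuclear receptor, is tetracycline-inducible in stable JEG3 cells. RT-qPCR measured SUMO-sensitive APOC3 and MUC1 transcripts, which rise with SUMO-less LRH-1 or UBC9 knockdown, versus TBP and DMSO controls. Robust Z-scores beyond ±2 flagged primary hits, followed by toxicity and TBP filtering.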

These compounds were tested on JEG3 expressing hLRH-1 (assay: MUC1 transcript change (ddCt vs TBP and DMSO), Z-score over library; higher = higher MUC1 expression). Settings: 10 µM; time (hr): 24.
With `CCn1cc(C(=O)O)c(=O)c2cc(F)c(N3CCNC(C)C3)c(F)c21` (stereo not drawn) [lomefloxacin hydrochloride] the “MUC1 transcript change (Z-score)” value was 0.497.
In the case of `Nc1ccc(S(=O)(=O)Nc2ccccn2)cc1` [sulfapyridine], the “MUC1 transcript change (Z-score)” value is reported as -0.0553.
`CCC(=O)OCC(=O)[C@@]1(OC(=O)CC)[C@@H](C)CC2C3CCC4=CC(=O)C=C[C@]4(C)C3(F)[C@@H](O)C[C@@]21C` (stereo partly drawn) [betamethasone 17,21-dipropionate] was tested, and the “MUC1 transcript change (Z-score)” value was 0.0348.
In the case of `C=C1c2cccc(O)c2C(O)=C2C(=O)[C@]3(O)C(O)=C(C(N)=O)C(=O)[C@@H](N(C)C)[C@@H]3[C@@H](O)[C@H]12` [methacycline hydrochloride], the “MUC1 transcript change (Z-score)” value is reported as 0.292.
For `CC(C(=O)O)c1cccc(C(=O)c2ccccc2)c1` (stereo not drawn) [ketoprofen], the “MUC1 transcript change (Z-score)” value was 2.53.
In the case of `CCOc1ccccc1OCCNC(C)Cc1ccc(OC)c(S(N)(=O)=O)c1` (stereo not drawn) [tamsulosin hydrchloride], the “MUC1 transcript change (Z-score)” value is reported as 0.592.
For `Nc1ccc(S(=O)(=O)Nc2ncccn2)cc1` [sulfadiazine], the “MUC1 transcript change (Z-score)” value was 0.129.
In the case of `CC1=NS(=O)(=O)c2cc(Cl)ccc2N1` [Diazoxide], the “MUC1 transcript change (Z-score)” value is reported as 0.228.
In the case of `Cn1nnnc1SCC1=C(C(=O)O)N2C(=O)C(NC(=O)C(O)c3ccccc3)C2SC1` (stereo not drawn) [cefamandole sodium], the “MUC1 transcript change (Z-score)” value is reported as 0.999.
`CCN(CC)CCOC(=O)C(Cc1cccc2ccccc12)CC1CCCO1` (stereo not drawn) [nafronyl oxalate] was tested, and the “MUC1 transcript change (Z-score)” value was 0.231.
For `Nc1cc(N2CCCCC2)nc(N)[n+]1[O-]` [Minoxidil], the “MUC1 transcript change (Z-score)” value was 0.338.
In the case of `CC1(C)C2CCC1(CS(=O)(=O)O)C(=O)/C2=C\c1ccc(/C=C2\C(=O)C3(CS(=O)(=O)O)CCC2C3(C)C)cc1` [ecamsule triethanolamine], the “MUC1 transcript change (Z-score)” value is reported as -0.732.
`Cc1ccc(S(=O)(=O)NC(=O)NN2CCCCCC2)cc1` [Tolazamide] was tested, and the “MUC1 transcript change (Z-score)” value was -0.254.
For `CN1C(CCl)Nc2cc(Cl)c(S(N)(=O)=O)cc2S1(=O)=O` (stereo not drawn) [methyclothiazide], the “MUC1 transcript change (Z-score)” value was 0.157.
With `CC(=O)N(CC(O)CO)c1c(I)c(C(=O)NCCO)c(I)c(C(=O)NCC(O)CO)c1I` (stereo not drawn) [ioxilan] the “MUC1 transcript change (Z-score)” value was -0.0877.
With `CC(C(=O)O)c1ccc2c(c1)Cc1cccnc1O2` (stereo not drawn) [pranoprofen] the “MUC1 transcript change (Z-score)” value was 1.16.
With `COC(=O)Nc1nc2cc(Sc3ccccc3)ccc2[nH]1` [fenbendazole] the “MUC1 transcript change (Z-score)” value was -0.351.
With `CCCCC(CC)COC(=O)CC(C(=O)OCC(CC)CCCC)S(=O)(=O)O` (stereo not drawn) [docusate sodium] the “MUC1 transcript change (Z-score)” value was -0.287.
With `COC(=O)[C@H]1[C@H]2C[C@@H]3c4[nH]c5cc(OC)ccc5c4CCN3C[C@H]2C[C@@H](OC(=O)c2cc(OC)c(OC)c(OC)c2)[C@@H]1OC` [reserpine] the “MUC1 transcript change (Z-score)” value was 0.00861.
`O=C(OOC(=O)c1ccccc1)c1ccccc1` [benzoyl peroxide] was tested, and the “MUC1 transcript change (Z-score)” value was 0.649.
For `CC[C@H]1OC(=O)[C@H](C)[C@@H](O[C@H]2C[C@@](C)(OC)[C@@H](O)[C@H](C)O2)[C@H](C)[C@@H](O[C@@H]2O[C@H](C)C[C@H](N(C)C)[C@H]2O)[C@](C)(O)C[C@@H](C)/C(=N\OCOCCOC)[C@H](C)[C@@H](O)[C@]1(C)O` [roxithromycin], the “MUC1 transcript change (Z-score)” value was 0.396.
With `CC[C@H](C)[C@H](N)C(=O)O` [isoleucine (l)] the “MUC1 transcript change (Z-score)” value was -0.621.
For `C[C@@](Cc1ccc(O)c(O)c1)(NN)C(=O)O` [S-(-)-Carbidopa], the “MUC1 transcript change (Z-score)” value was -0.125.
`O=C(O)CCNC(=O)c1ccccc1` [betamipron] was tested, and the “MUC1 transcript change (Z-score)” value was 0.734.
`C/C(=C(/CCOP(=O)(O)O)SC(=O)c1ccccc1)N(C=O)Cc1cnc(C)nc1N` (stereo in doubt) [benfotiamine] was tested, and the “MUC1 transcript change (Z-score)” value was 0.64.
`Oc1c(Cl)cc(Cl)c2cccnc12` [chloroxine] was tested, and the “MUC1 transcript change (Z-score)” value was 3.37.
`OCC(O)[C@@H](O)CO` (stereo partly drawn) [erythritol] was tested, and the “MUC1 transcript change (Z-score)” value was 0.399.
In the case of `CC(C)OC(=O)C(C)(C)Oc1ccc(C(=O)c2ccc(Cl)cc2)cc1` [fenofibrate], the “MUC1 transcript change (Z-score)” value is reported as -2.32.
In the case of `N=C(NCCCCCCNC(=N)NC(=N)Nc1ccc(Cl)cc1)NC(=N)Nc1ccc(Cl)cc1` [chlorhexidine], the “MUC1 transcript change (Z-score)” value is reported as -1.36.
With `CN(C)CCOC(c1ccccc1)c1ccccc1.Cn1c(=O)c2[nH]c(Cl)nc2n(C)c1=O` [dimenhydrinate] the “MUC1 transcript change (Z-score)” value was -0.444.
`COC(=O)[C@H](Cc1ccccc1)NC(=O)[C@@H](N)CC(=O)O` [aspartame] was tested, and the “MUC1 transcript change (Z-score)” value was -0.77.
With `CO/N=C(\C(=O)N[C@@H]1C(=O)N2C(C(=O)O)=C(COC(C)=O)CS[C@H]12)c1csc(N)n1` [cefotaxime sodium] the “MUC1 transcript change (Z-score)” value was 0.851.
With `CCCCCCCCCCCCCCCC(=O)OC/C=C(C)/C=C/C=C(C)/C=C/C1=C(C)CCCC1(C)C` [retinyl palmitate] the “MUC1 transcript change (Z-score)” value was 0.716.
`CC(=O)Nc1c(I)cc(I)c(C(=O)O)c1I` [acetriazoic acid] was tested, and the “MUC1 transcript change (Z-score)” value was 0.772.
In the case of `C=COCC(F)(F)F` [fluroxene], the “MUC1 transcript change (Z-score)” value is reported as 0.442.
`COc1cc(C(=O)N2CCOCC2)cc(OC)c1OC` [trimetozine] was tested, and the “MUC1 transcript change (Z-score)” value was 1.37.
For `O=NN(CCCl)C(=O)NC1CCCCC1` [lomustine], the “MUC1 transcript change (Z-score)” value was -0.568.
In the case of `CC(C)(C)NC[C@H](O)COc1ccccc1C1CCCC1` [penbutolol sulfate], the “MUC1 transcript change (Z-score)” value is reported as 0.802.
With `CCN(CC)CCNC(=O)c1ccc(N)cc1` [Procainamide hydrochloride] the “MUC1 transcript change (Z-score)” value was 0.341.
`NC[C@H](O)c1ccc(O)c(O)c1` [norepinephrine] was tested, and the “MUC1 transcript change (Z-score)” value was -0.27.
`CC(C)Cc1ccc([C@H](C)C(=O)O)cc1` [dexibuprofen] was tested, and the “MUC1 transcript change (Z-score)” value was -0.0511.
With `O=C(O)C1=C(CSc2nnnn2CS(=O)(=O)O)CS[C@@H]2[C@H](NC(=O)[C@H](O)c3ccccc3)C(=O)N12` [cefonicid sodium] the “MUC1 transcript change (Z-score)” value was -0.885.
`CN(C)CCN(Cc1ccc(Cl)cc1)c1ccccn1` [chloropyramine hydrochloride] was tested, and the “MUC1 transcript change (Z-score)” value was -0.366.
For `CN[C@@H]1[C@@H](O[C@H]2O[C@H](CO)[C@@H](N)[C@H](O)[C@H]2O)O[C@H]2C[C@@H](N)[C@H](O[C@H]3[C@H](O)[C@@H](O)[C@H](N)C[C@@H]3N)O[C@@H]2[C@@H]1O` [apramycin sulfate], the “MUC1 transcript change (Z-score)” value was 0.0392.
In the case of `Nc1nc(O)c2ncn(COCCO)c2n1` [Acyclovir], the “MUC1 transcript change (Z-score)” value is reported as 1.32.
With `CC(=O)Nc1ccc(S(=O)(=O)c2ccc(NC(C)=O)cc2)cc1` [acedapsone] the “MUC1 transcript change (Z-score)” value was -0.291.
In the case of `CCOC(=O)[C@H](CCc1ccccc1)N[C@H]1CCc2ccccc2N(CC(=O)O)C1=O` [benazepril hydrochloride], the “MUC1 transcript change (Z-score)” value is reported as 0.821.
With `O=C(Oc1cccc2cccnc12)c1ccccc1` [benzoxiquine] the “MUC1 transcript change (Z-score)” value was 0.857.
